Test results from patent US20060068386A1, “Complete genome and protein sequence of the hyperthermophile methanopyrus kandleri av19 and monophyly of archael methanogens and methods of use thereof” (priority 2002, published 2006).
Protein sequences can lack the tags named with them.

Key:
[1] = biological target: T1, Fen1 (5'-3' exonuclease, MK0566) (Methanopyrus kandleri AV19) (UniProt Q8TXU4); assay: enzyme reaction in vitro; conditions: 1 mM Mn2+, 55 C, 10 min; purified recombinant protein; protein details: additional Met at N-terminus, pET21d in E. coli; label: 5'-fluorescein; folded or branched DNA
T1 sequence (limits assumed): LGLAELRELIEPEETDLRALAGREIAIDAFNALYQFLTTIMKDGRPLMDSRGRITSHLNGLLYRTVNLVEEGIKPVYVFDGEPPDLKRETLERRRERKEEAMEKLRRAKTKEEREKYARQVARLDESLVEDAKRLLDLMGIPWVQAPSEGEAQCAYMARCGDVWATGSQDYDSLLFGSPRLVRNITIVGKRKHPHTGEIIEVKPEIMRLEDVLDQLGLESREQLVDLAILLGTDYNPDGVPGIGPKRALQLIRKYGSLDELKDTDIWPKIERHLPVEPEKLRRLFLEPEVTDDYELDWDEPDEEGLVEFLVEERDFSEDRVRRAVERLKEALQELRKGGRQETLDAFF

[2] = tested on: T2, DNA polymerase PolB (family B, MK1039) (Methanopyrus kandleri AV19); assay: enzyme reaction in vitro; conditions: 3'-5' exonuclease; cleaves off only 9 nt, 13-nt primer shortest substrate; purified recombinant protein; protein details: Met-Gly at N-terminus, pET21d in E. coli; label: 5'-fluorescein; single-stranded DNA
T2 sequence (limits assumed): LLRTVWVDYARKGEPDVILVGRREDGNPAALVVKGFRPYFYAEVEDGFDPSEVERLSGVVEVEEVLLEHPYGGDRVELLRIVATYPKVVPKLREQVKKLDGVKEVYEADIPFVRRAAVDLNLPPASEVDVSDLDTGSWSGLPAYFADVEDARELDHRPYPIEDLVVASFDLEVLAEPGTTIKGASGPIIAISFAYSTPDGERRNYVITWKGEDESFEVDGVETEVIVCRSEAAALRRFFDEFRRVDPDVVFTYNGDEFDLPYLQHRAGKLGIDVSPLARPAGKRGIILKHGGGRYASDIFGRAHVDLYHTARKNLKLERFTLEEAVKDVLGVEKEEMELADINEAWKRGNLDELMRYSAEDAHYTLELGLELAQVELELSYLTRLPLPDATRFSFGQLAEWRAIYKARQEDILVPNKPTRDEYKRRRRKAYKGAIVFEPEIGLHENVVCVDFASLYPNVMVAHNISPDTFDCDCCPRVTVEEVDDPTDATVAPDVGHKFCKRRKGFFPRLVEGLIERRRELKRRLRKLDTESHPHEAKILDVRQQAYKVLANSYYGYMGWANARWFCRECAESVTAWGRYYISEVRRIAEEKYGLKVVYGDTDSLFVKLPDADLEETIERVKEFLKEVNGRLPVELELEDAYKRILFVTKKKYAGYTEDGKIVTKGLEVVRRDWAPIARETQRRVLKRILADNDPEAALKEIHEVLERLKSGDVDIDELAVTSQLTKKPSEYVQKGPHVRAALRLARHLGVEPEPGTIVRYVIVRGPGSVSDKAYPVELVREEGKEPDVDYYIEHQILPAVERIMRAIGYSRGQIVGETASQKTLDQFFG

Sequence	activity on this sequence [1]	activity on this sequence [2]
CTATAGGGAGACCGGAATTCGAGCTCGCCCGGGCGAGCTCGAATTCCGTGTATTTATA [Fen1 substrate oligonucleotide (APAV0062)]	active	
GTAATACGACTCACTATAGGG [fluorescent primer for exonuclease assay]		active
